Data reported in PubChem BioAssay AID1347423 (Functional Genomics Laboratory (NCATS/FGL), 2020).
In all, about 52,000 sequences went through this assay and about 210 (0.4%) were called active.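 The calls were made as follows: active = gene whose silencing raises cell survival under the drug, median off-target-corrected z-score across its silencing RNAs 2 or more; inactive = the rest.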 The list shows a part of the results.

test: Resistance to Poly (ADP-Ribose) Polymerase inhibitor: Gene Identification via Genome-wide siRNA Screen; settings: mouse BRCA2 R2336H ES cells, olaparib, CellTiter-Glo viability; active compounds read high
Outline: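 Mouse BRCA2 R2336H ES cells were reverse-transfected with siRNA (20 nM final), treated at 48 h with 500 nM olaparib, and read by CellTiter-Glo after 72 h. Scores: MAD-based z per siRNA, median per gene, seed off-target correction.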

Sequence | z-score
GCUUAUCGAAUUCUUCUCCTT against Tmem4 | inactive: 0.421
GGAACUAGAGACACUGAUUTT against 1700024D23Rik | inactive: 0.948
GGAUCUUCGGGACACCUUUTT against Mylpf | inactive: -0.521
GGAAGAAAAGAAUUCUAUGTT against BC027174 | inactive: 0.235
GGCCCUCACUCGUAUAUUUTT against Rhot1 | inactive: -0.881
CCCAGGAGUCCGACUUUACTT against Kirrel2 | inactive: -1.1
GGUAGACUGAACUUCAGCATT against 5430431G03Rik | inactive: -0.0988
GGGUUCCUCAGAGACUGAGTT against Esrra | inactive: -0.971
GGCGACACAAUAAGACAGATT against Wdr19 | inactive: -1.11
GGACCUCAUCUACAGAAUGTT against Stk22a | inactive: 0.406
GGCCAGAGAGGAGAACUAATT against Zfp202 | inactive: -0.381
CCUCUGCCCAUUAUCGAAGTT against BC034834 | inactive: -0.363
GGGUAUUGAAUCAGGCAUCTT against Olfr628 | inactive: -0.513
GGUCCCUAGCACUAUUUUUTT against Hes6 | inactive: -0.919
GGAGAACAUUGCUAAAUGUTT against Slc34a2 | inactive: 0.948
CCUGUAGAUUCAAUUAGAGTT against Vkorc1l1 | inactive: -0.0634
GGUGUACGUGAACAACUCCTT against Kcnmb4 | inactive: -0.111
GCUUUUACUGUACCUCUUCTT against Tmc4 | inactive: -0.0626
GGAGUGAGCAUUUACUUUGTT against 1110018G07Rik | inactive: -0.774
GCCAAAGCCUAGAGCCAAUTT against Olfr410 | inactive: -1.57
GGUGUUUGGGAACAAGAUGTT against Eif2ak3 | inactive: -0.00406
GGCCAGAUUACCAGCAAUATT against 1810009J06Rik | inactive: -0.757
GGCUUCGCUAACCAUAGUUTT against A230098A12Rik | inactive: -0.142
GGGCAUGUGAUAGAACAAUTT against Stoml1 | inactive: -0.862
CGAGCAAUGUUAAAAAUGATT against 5033405K12Rik | inactive: -0.315
GGCAGAUUGACAGUUUACCTT against C920008G01Rik | inactive: 0.186

A second format for some results above.
Sequence,z-score
GGCCCUCACUCGUAUAUUUTT against Rhot1,inactive: -0.881
CCCAGGAGUCCGACUUUACTT against Kirrel2,inactive: -1.1
GGACCUCAUCUACAGAAUGTT against Stk22a,inactive: 0.406
GGUGUUUGGGAACAAGAUGTT against Eif2ak3,inactive: -0.00406
GGCCAGAUUACCAGCAAUATT against 1810009J06Rik,inactive: -0.757
GGGCAUGUGAUAGAACAAUTT against Stoml1,inactive: -0.862

Following part

Sequence | z-score
GGAUCAACCUAGAAGCUUGTT against 2610019A05Rik | inactive: 0.323
GGUAUGAUGAAAAUACACATT against Mmp1a | inactive: -0.428
GGAUUUGGAAAAAGUGUUUTT against Hprt1 | inactive: 0.529
GGCUCAGCAGCAGAAACAATT against Txndc9 | inactive: -1.27
GGAAGAUAACCAUUUUGAATT against ORF21 | inactive: -0.523
CCUGGUACAAGGAACCAGUTT against Zim1 | inactive: -1.61
GGCCUUUCAUGAAAGCUCATT against BC002236 | inactive: -1.44
GCGAAGACUUCUUCUACAUTT against Lzts1 | inactive: -0.393
GGCUUCACCAUUUUCAUAATT against P2rx5 | inactive: -0.548
GGAAUCAAAUGGCGUAGGUTT against Thrap2 | inactive: -0.37
CGUGAGUGUCCAUGUGACCTT against Slp | inactive: -0.799
GGUCAGAAGAAAAGACAAATT against 2610029K21Rik | inactive: -0.458
CCGGAGAUGUAAAUGCAAATT against Arf4l | inactive: 1.45
CCUCAUCAAUCAGCCUAUGTT against Olfr1178 | inactive: -2.76
CCGGAGUAACUCUCUAACATT against Apbb3 | inactive: -0.925
CGCAUCCGCUAGUAGCUUGTT against Fscn1 | inactive: -0.203
GCCUUAACUAGUUUGUGUCTT against Shh | inactive: 0.538
GCAUGCCUCCAAUAUGCUUTT against Vps35 | inactive: -0.302
GGGAUGUGCUUUCAGGCUGTT against AU040320 | inactive: 0.79
GGAAAAGGAUAAGGAAAGCTT against Atbf1 | inactive: 0.684
GGACGAUGAACAUUGUCCCTT against Gpr19 | inactive: 1.36
GGAGUCCUCAAUACUUUCUTT against C79267 | inactive: -0.827
GGGUCUGUAUCAGCUUGGUTT against Olfr1402 | inactive: -0.979
GGUAAAGCAGUACCUUUCUTT against Mitf | inactive: 0.781
GCAGGUCUAAAACUCUCAUTT against 9330180L21Rik | inactive: 0.668
CCAGGUGUACCUUACGUUGTT against Eif4ebp2 | inactive: 0.839

Sequence | z-score
GGGCUUUCUCAGAAAAGAATT against Olfr508 | inactive: -0.134
GCCAUUUCAUUUCGGACUGTT against Dgkz | inactive: -1.22
GCUGGUGUGUAAUUACGUUTT against Gli | inactive: 0.981
GAAGAUUGGAUUUAAAGCCTT against Olfr667 | inactive: 0.883
GGUGUGCAGAAGAUCUUGCTT against Osbpl6 | inactive: -0.618
GGUUGUUAUAGAAGCUAAUTT against Wnt5a | inactive: 2.31
GGAGGCAGCAGUUAUUGUGTT against Ly6a | inactive: 0.455
GCAGGAAUAUACGAAUCACTT against 4930478A21Rik | inactive: 1.39
GCUAACCUUUGAGUUAGUGTT against Tbc1d12 | inactive: -0.334
GGAACCUGAAAAUGUAUGUTT against Cxcl10 | inactive: 1.57
GGAACAUUUUUAGGACUGUTT against AJ543404 | inactive: -0.715
GAGAAGAGAGAGAAGCAUUTT against Sstk | inactive: -0.746
GGCACUCAGAAAUAUUCAGTT against Nap1l3 | inactive: 0.82
CGUAAAGUGAUUAUAACACTT against AW210570 | inactive: 0.403
GGAUCCUAGGAUUCUUGGUTT against Slfn5 | inactive: -2.49
GCGUACGUUCUCCUAACAUTT against Hbs1l | inactive: 0.603
GGCCUUGAUGGUGAAGAUGTT against E130203B14Rik | inactive: 0.398
GCAAUACUAUUCAGUCCAUTT against Gnai3 | inactive: -0.509
GCAUCUUACGCAUUAAAUCTT against Olfr935 | inactive: 0.555
GCAGAGUUUGCAUGCUGUUTT against 1110051B16Rik | inactive: 0.414
CGUUUUAUGUGGCAAGCAUTT against Olfr1306 | inactive: 0.278
GGCAUCUCUUUGCUUGAAUTT against Lalba | inactive: -1.34
GGAGUGUACAUUCUGAUUGTT against Cd9 | inactive: -0.946
GGUUUAAGAAAAAAGGAGCTT against 1810048P08Rik | inactive: 0.304
GGGCAUUGGCAAGAAAAAGTT against D030015G18Rik | inactive: -0.551
GGCAGUGACUCUUCAGAAGTT against Ibsp | inactive: -1.07

Sequence | z-score
GGAAACCUGGAAACAGUUUTT against 2210421G13Rik | inactive: -0.602
GGAGGUGAACCAUAGAGAGTT against BC035295 | inactive: -0.806
CGAGAGAAGCCCAUCAUCATT against Nrg4 | inactive: -0.2
GGCAUUAGCAUCUACCCAGTT against Syt11 | inactive: 0.242
GGAUUGCUCCGAGAACAUCTT against Grcc9 | inactive: 0.084
CCUACACUAAAAUUCACCATT against D730046L02Rik | inactive: 0.0902
GGCAGGUGUUAAGGCUUCATT against Tas2r117 | inactive: -1.32
CCACAAUGUUACCCAGAAUTT against Gpr64 | inactive: -0.504
GGUAUUCCUGUCUCAGGUCTT against Matn1 | inactive: 0.49
GGCUUCAUUUACUGUAACGTT against Flrt3 | inactive: -0.683
CCCUAACAUACUGGAGCUATT against 4832406C22 | inactive: -1.69
GGAGAUCUUGAUUAGCGAATT against 4930401F20Rik | inactive: -0.281
GCACCUAGCAUAGCAAUGGTT against Slc24a1 | inactive: -1.34
GGAAGAAGUACUGAGAAGATT against Ctsq | inactive: 0.62
GGCCACACUUUGAAGUGACTT against Set7 | inactive: -0.153
GGGACAUUAAUAAACCUGATT against Omg | inactive: -1.21
GCCCACUAUUAUCGAUAUGTT against Nspc1 | inactive: -0.0988
GGGUAGAAUGACUUUGGCCTT against Cldn2 | inactive: 0.488
GGAUGUCCUUGUUUCCUUCTT against Sult5a1 | inactive: 0.582
GGAAAAGAUCAACCAUUAUTT against 1700007N18Rik | inactive: -1.57
GAUUGCUACUCUGGCUUUATT against Tm4sf10 | inactive: -2.46
GGAAAUAGAUUCAUUGAAGTT against Slc6a14 | inactive: 0.884
CCUGUUUCAGUCAUUAGUGTT against Slc22a2 | inactive: -0.256
GCUGAGAAAUUGUCUACGCTT against Ngfrap1 | inactive: 0.985
GGAUGUACAGUGCAUUUUGTT against D10Bur2e | inactive: 0.407
